Measurements reported in article PMC12424427.
These are yes or no findings as the source states them, for the method shown. In cells and extracts the contact can be indirect. Some results given as binding are weak or reduced against the parent protein; the word gives no strength. For some of these results: Sequences can lack the tags named with a protein. One block for each binder: values may come before it.

The chains behind the UniProt entries cited, without tags or fusion partners. Where a name states a change or a piece, a line headed by the entry shows the natural chain unless it says otherwise. Residues count along the entry.
UniProt Q9UKV8: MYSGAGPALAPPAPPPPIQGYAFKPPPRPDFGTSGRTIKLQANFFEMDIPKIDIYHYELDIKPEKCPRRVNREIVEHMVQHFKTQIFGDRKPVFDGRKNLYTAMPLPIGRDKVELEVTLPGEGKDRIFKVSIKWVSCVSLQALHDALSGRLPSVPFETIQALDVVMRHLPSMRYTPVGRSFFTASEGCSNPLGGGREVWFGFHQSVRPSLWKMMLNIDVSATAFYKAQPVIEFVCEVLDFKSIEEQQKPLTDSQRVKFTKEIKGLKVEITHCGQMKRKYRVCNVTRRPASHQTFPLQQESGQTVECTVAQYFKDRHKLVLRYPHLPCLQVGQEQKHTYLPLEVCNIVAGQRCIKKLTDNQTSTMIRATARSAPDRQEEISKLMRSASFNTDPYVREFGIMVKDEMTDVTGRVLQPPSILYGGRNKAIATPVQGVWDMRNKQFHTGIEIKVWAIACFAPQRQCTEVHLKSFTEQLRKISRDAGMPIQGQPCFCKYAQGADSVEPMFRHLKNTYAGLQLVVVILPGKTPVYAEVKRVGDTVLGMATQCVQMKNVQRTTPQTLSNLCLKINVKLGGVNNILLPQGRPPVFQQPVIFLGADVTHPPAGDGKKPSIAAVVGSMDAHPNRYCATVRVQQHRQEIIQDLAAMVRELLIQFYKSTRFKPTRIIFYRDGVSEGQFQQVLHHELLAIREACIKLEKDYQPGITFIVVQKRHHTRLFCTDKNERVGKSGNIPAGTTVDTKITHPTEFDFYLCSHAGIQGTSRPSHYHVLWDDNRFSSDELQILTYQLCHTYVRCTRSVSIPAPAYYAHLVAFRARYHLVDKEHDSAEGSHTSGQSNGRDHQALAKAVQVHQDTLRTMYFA
V5-AGO2-N-1∼139aa: residues 1-139 of Q9UKV8
V5-AGO2-PIWI-581∼859aa: residues 581-859 of Q9UKV8

Tests used:
[1] = biological target: Argonaute 2 (AGO2), endogenous (human (endogenous in A549)) (UniProt Q9UKV8); assay: co-IP
[2] = biological target: Argonaute 2 (AGO2), endogenous (human (endogenous in A549)) (UniProt Q9UKV8); assay: co-IP; Figure S6 (legend not shown); immunoprecipitation coupled with RNase treatment
[3] = biological target: V5-AGO2-N-1∼139aa (human) (UniProt Q9UKV8); assay: co-IP; 293 cells transfected with Flag-RIG-I and full-length or truncated V5-AGO2; AGO2 constructs immunoprecipitated, RIG-I detected; low salt lysis buffer (150 mM NaCl, 50 mM Tris pH 7.4, 1% Triton X-100, 1 mM EDTA), 4 °C overnight
[4] = biological target: V5-AGO2-PIWI-581∼859aa (human) (UniProt Q9UKV8); assay: as above

binding [1]: binds
binding [2]: binds
B1: RIG-I, endogenous (protein, UniProt O95786 1-925)
chain: MTTEQRRSLQAFQDYIRKTLDPTYILSYMAPWFREEEVQYIQAEKNNKGPMEAATLFLKFLLELQEEGWFRGFLDALDHAGYSGLYEAIESWDFKKIEKLEEYRLLLKRLQPEFKTRIIPTDIISDLSECLINQECEEILQICSTKGMMAGAEKLVECLLRSDKENWPKTLKLALEKERNKFSELWIVEKGIKDVETEDLEDKMETSDIQIFYQEDPECQNLSENSCPPSEVSDTNLYSPFKPRNYQLELALPAMKGKNTIICAPTGCGKTFVSLLICEHHLKKFPQGQKGKVVFFANQIPVYEQQKSVFSKYFERHGYRVTGISGATAENVPVEQIVENNDIIILTPQILVNNLKKGTIPSLSIFTLMIFDECHNTSKQHPYNMIMFNYLDQKLGGSSGPLPQVIGLTASVGVGDAKNTDEALDYICKLCASLDASVIATVKHNLEELEQVVYKPQKFFRKVESRISDKFKYIIAQLMRDTESLAKRICKDLENLSQIQNREFGTQKYEQWIVTVQKACMVFQMPDKDEESRICKALFLYTSHLRKYNDALIISEHARMKDALDYLKDFFSNVRAAGFDEIEQDLTQRFEEKLQELESVSRDPSNENPKLEDLCFILQEEYHLNPETITILFVKTRALVDALKNWIEGNPKLSFLKPGILTGRGKTNQNTGMTLPAQKCILDAFKASGDHNILIATSVADEGIDIAQCNLVILYEYVGNVIKMIQTRGRGRARGSKCFLLTSNAGVIEKEQINMYKEKMMNDSILRLQTWDEAVFREKILHIQTHEKFIRDSQEKPKPVPDKENKKLLCRKCKALACYTADVRVIEECHYTVLGDAFKECFVSRPHPKPKQFSSFEKRAKIFCARQNCSHDWGIHVKYKTFEIPVIKIESFVVEDIATGVQTLYSKWKDFHFEKIPFDPAEMSK

binding [3]: binds
binding [4]: binds
B2: Flag-RIG-I, full length (FL) (protein, UniProt O95786 1-925)
chain: B1 chain
